For the assay, the system named is L1210 leukemia ip in BDF1 mice, survival T/C. Description: NCI In Vivo Anticancer Drug Screen. Data for tumor model L1210 Leukemia (intraperitoneal) in B6D2F1 (BDF1) mice. Conditions: T/C endpoint: mean survival time, higher T/C = longer survival.
Where [1] appears, read: dose: 100.0 mg/kg/injection, schedule: Q01DX009 (ip), vehicle: saline with Tween-80.
Where [2] appears, read: dose: 200.0 mg/kg/injection, schedule: Q01DX009 (ip), vehicle: saline with Tween-80.
The mark [3] stands for this setting: dose: 400.0 mg/kg/injection, schedule: Q01DX001 (ip), vehicle: saline.
Where [4] appears, read: dose: 400.0 mg/kg/injection, schedule: Q01DX001 (ip), vehicle: Klucel (hydroxypropylcellulose) (HPC).
Where [5] appears, read: dose: 400.0 mg/kg/injection, schedule: Q01DX009 (ip), vehicle: saline with Tween-80.
The mark [6] stands for this setting: dose: 400.0 mg/kg/injection, schedule: Q01DX009 (ip), vehicle: Klucel (hydroxypropylcellulose) (HPC).
The mark [7] stands for this setting: dose: 400.0 mg/kg/injection, schedule: Q04DX003 (ip), vehicle: saline.
The mark [8] stands for this setting: dose: 400.0 mg/kg/injection, schedule: Q04DX003 (ip), vehicle: saline with Tween-80.

The list shows only some results of the screen, not a fair sample: it is rich in T/C values a quarter to a half above the control, in often repeated tests (any T/C) and in doses without a T/C. Other doses and runs of a compound stand elsewhere. T/C: endpoint of the treated group in % of that of the vehicle group. Some entries give survivors of the animals treated and no T/C: the source holds a T/C of zero for them, seemingly a mark for toxic or unscored doses. Some survivor counts are full or nearly so, which does not show that the dose was tolerated: survival well below the control is almost never listed, so the zero probably covers shortened survival too. Counts of survivors are from the toxicity check (mostly the fifth day) where no day follows; animals may have died later. Schedule codes are those of the source, read here as Q, the interval in days (D) or hours (H), X, the number of doses. For survival time, this PubChem deposit counts one and a half times the control or more as active, and values a quarter to a half above the control carry no call in these data; other NCI protocols may use other cut-offs. Some T/C values are followed by the survivors on the day toxicity was checked, most often the fifth; where none is given, no animal had died by that day.

For `Nc1ccc(CCc2ccccc2)cc1`, the survivor count is, setting by setting: under setting [1], 4 of 6; under setting [2], 0 of 6.

In the case of `CCO/C=C1\SC(=S)N(c2ccc(C(=O)O)cc2)C1=O`, the survivor count runs as follows: under setting [1], 3 of 6; (dose: 200.0 mg/kg/injection, schedule: Q01DX009 (ip), vehicle: saline sonified) 4 of 6; (dose: 400.0 mg/kg/injection, schedule: Q01DX009 (ip), vehicle: saline sonified) 2 of 6.

On to `N=C(N)c1ccc(OCCCCCCOc2ccc(C(=N)N)cc2)cc1`, for which the survivor count reads like this: (dose: 100.0 mg/kg/injection, schedule: Q01DX001 (ip), vehicle: saline) 1 of 4; (dose: 200.0 mg/kg/injection, schedule: Q01DX001 (ip), vehicle: saline) 0 of 4; under setting [3], 0 of 4.

With `O=C(O)CCSc1nc2ccccc2s1`, the survivor count is, setting by setting: (dose: 100.0 mg/kg/injection, schedule: Q04DX003 (ip), vehicle: Klucel (hydroxypropylcellulose) (HPC)) 6 of 6; (dose: 200.0 mg/kg/injection, schedule: Q04DX003 (ip), vehicle: Klucel (hydroxypropylcellulose) (HPC)) 6 of 6.

On to `CC1(C)N=C(N)N=C(N)N1c1cccc(OCCCOc2ccccc2)c1`, for which the survivor count is, setting by setting: (dose: 100.0 mg/kg/injection, schedule: Q01DX001 (ip), vehicle: Klucel (hydroxypropylcellulose) (HPC)) 2 of 6; under setting [4], 2 of 6.

As for `CCC1CN2CCc3cc(OC)c(OC)cc3C2CC1=O` (configuration not stated), the T/C under setting [2] is 128 % of control [5 of 6 alive]. Further, under setting [5], the T/C was 134 % of control [4 of 6 alive] and the survivor count is 3 of 6.

For the compound `CN1CCN(c2nc3ccccc3n3nnnc23)CC1`, the survivor count (dose: 150.0 mg/kg/injection, schedule: Q04DX003 (ip), vehicle: saline) was 3 of 4.

On to `C/C(=N\OC(=O)Nc1ccccc1)c1ccccc1`, for which the survivor count (dose: 200.0 mg/kg/injection, schedule: Q01DX001 (ip), vehicle: carboxymethylcellulose (CMC)) was 4 of 4.

In the case of `C=C1C(=O)OCC1(C(=O)OCC)C(=O)OCC`, for the setting “dose: 40.0 mg/kg/injection, schedule: Q01DX009 (ip), vehicle: saline”, the survivor count was 1 of 6.

With `CN(C)S(=O)(=O)c1ccc(NC(=O)C(Cl)(Cl)Cl)cc1`, the survivor count under setting [6] is 6 of 6.

For `O=C1c2nc3ccccc3nc2C(=O)N1O`, the survivor count under setting [6] was 6 of 6.

Consider `C=CCNC(=S)Nc1c(C)cc(C)cc1C`, for which the survivor count was 5 of 6 (dose: 100.0 mg/kg/injection, schedule: Q01DX009 (ip), vehicle: Klucel (hydroxypropylcellulose) (HPC)); 1 of 6 (dose: 200.0 mg/kg/injection, schedule: Q01DX009 (ip), vehicle: Klucel (hydroxypropylcellulose) (HPC)); 0 of 6 under setting [6].

`O=C(O)c1ccc(C(=O)O)c(O)c1O`: the survivor count under setting [7] is 2 of 6.

Regarding `CN(C)CCSC(=O)N1c2ccccc2C(C)(C)c2ccccc21`, the survivor count is, setting by setting: (dose: 100.0 mg/kg/injection, schedule: Q01DX009 (ip), vehicle: saline) 6 of 6; (dose: 200.0 mg/kg/injection, schedule: Q01DX009 (ip), vehicle: saline) 4 of 6; under setting [7], 0 of 4.

Turning to `CC(=O)[O][Hg][c]1c(C)c(C)c(C)c(C)c1C`, the survivor count (dose: 100.0 mg/kg/injection, schedule: Q04DX003 (ip), vehicle: saline with Tween-80) was 4 of 6; the survivor count (dose: 200.0 mg/kg/injection, schedule: Q04DX003 (ip), vehicle: saline with Tween-80) is recorded as 2 of 6; the survivor count under setting [8] is 0 of 6.

In the case of `O=C(CCCCCCCCC(=O)N/N=C/c1ccc(Cl)c(Cl)c1)N/N=C/c1ccc(Cl)c(Cl)c1`, the survivor count is 6 of 6 under setting [2] and 5 of 6 under setting [8].

Take `CC1(C)CCC2=C(O1)c1ccccc1C(=O)C2=O`: the T/C (dose: 200.0 mg/kg/injection, schedule: Q01DX001 (ip), vehicle: Klucel (hydroxypropylcellulose) (HPC)) was 136 % of control [5 of 6 alive]. In addition, the survivor count under setting [4] was 0 of 6.

With `CN1CCN(CCNc2ccc(CO)c3sc4ccccc4c(=O)c23)CC1`, the survivor count (dose: 250.0 mg/kg/injection, schedule: Q01DX009 (ip), vehicle: Klucel (hydroxypropylcellulose) (HPC)) is given as 2 of 6.

As to `CCCCn1cnc2c(=O)n(C)c(=O)n(C)c21`, the survivor count under setting [3] is 3 of 6.

Consider `CCCNC(=S)NNC(=O)c1ccncc1`, for which, where the note is “dose: 400.0 mg/kg/injection, schedule: Q04DX002 (ip), vehicle: saline with Tween-80”, the survivor count was 0 of 3.

For the origin of these results see PubChem BioAssay AID248 (DTP/NCI, 2004).
